# From article PMC4792602
# Sequences of proteins named here, by UniProt entry; tags and fusion partners are left off.
# UniProt P11142: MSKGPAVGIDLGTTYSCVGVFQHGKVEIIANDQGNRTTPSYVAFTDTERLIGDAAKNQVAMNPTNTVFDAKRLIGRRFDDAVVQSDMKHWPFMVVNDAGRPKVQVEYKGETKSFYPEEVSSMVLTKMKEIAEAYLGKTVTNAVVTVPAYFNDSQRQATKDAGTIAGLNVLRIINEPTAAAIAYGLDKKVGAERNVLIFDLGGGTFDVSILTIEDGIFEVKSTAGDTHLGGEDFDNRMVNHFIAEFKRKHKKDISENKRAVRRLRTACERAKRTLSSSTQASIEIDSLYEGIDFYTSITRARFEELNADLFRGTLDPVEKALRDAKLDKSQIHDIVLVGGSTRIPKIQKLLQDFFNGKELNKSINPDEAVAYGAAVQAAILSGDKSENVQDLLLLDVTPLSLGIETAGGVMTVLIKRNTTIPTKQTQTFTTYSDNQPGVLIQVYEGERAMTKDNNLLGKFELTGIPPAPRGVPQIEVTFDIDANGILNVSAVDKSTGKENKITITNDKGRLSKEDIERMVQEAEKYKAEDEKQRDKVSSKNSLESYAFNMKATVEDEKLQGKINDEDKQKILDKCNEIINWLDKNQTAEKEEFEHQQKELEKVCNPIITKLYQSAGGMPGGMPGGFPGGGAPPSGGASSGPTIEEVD
# UniProt P68104: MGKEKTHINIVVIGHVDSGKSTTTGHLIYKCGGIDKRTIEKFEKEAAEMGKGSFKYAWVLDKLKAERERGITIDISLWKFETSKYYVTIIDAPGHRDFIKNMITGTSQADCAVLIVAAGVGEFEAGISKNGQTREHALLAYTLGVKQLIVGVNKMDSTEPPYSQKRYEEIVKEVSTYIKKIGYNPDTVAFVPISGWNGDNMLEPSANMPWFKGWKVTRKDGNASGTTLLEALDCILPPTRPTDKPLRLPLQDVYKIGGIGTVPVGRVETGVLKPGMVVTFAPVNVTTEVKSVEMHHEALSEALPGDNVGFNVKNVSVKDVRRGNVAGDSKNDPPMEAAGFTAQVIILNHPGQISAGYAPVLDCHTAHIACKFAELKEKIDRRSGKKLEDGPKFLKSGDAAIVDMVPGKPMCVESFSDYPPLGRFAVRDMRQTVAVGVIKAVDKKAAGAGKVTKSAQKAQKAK
# Results are given in words; binding and its absence hold for the method and conditions named. Binding seen in cells or lysates may run through a third protein. Some entries that bind do so weakly or less than the wild type. Where a sequence is shown, tags or fusion partners need not be part of it.
# Key:
# [1] = target: Hsc70 (human (endogenous in 2fTGH)) (UniProt P11142); assay: co-IP; IP with anti-PKM2, anti-HSPA1A, anti-Hsc70 or anti-EEF1A1 from lysates of Flag-HA-TG2 2fTGH cells; steady state, 4 h starvation or MG132 for 4 h; lysis buffer 10 mM Tris-HCl pH 8.0, 150 mM NaCl, 10% glycerol, 0.5% NP40
# [2] = target: EEF1A1 protein [Homo sapiens] (human) (UniProt P68104); assay: as above
binder,measurement,setting,value
"Flag-hemagglutinin (HA)-tagged transglutaminase type 2 (enzyme, UniProt P21980 1-687) MAEELVLERCDLELETNGRDHHTADLCREKLVVRRGQPFWLTLHFEGRNYEASVDSLTFSVVTGPAPSQEAGTKARFPLRDAVEEGDWTATVVDQQDCTLSLQLTTPANAPIGLYRLSLEASTGYQGSSFVLGHFILLFNAWCPADAVYLDSEEERQEYVLTQQGFIYQGSAKFIKNIPWNFGQFEDGILDICLILLDVNPKFLKNAGRDCSRRSSPVYVGRVVSGMVNCNDDQGVLLGRWDNNYGDGVSPMSWIGSVDILRRWKNHGCQRVKYGQCWVFAAVACTVLRCLGIPTRVVTNYNSAHDQNSNLLIEYFRNEFGEIQGDKSEMIWNFHCWVESWMTRPDLQPGYEGWQALDPTPQEKSEGTYCCGPVPVRAIKEGDLSTKYDAPFVFAEVNADVVDWIQQDDGSVHKSINRSLIVGLKISTKSVGRDEREDITHTYKYPEGSSEEREAFTRANHLNKLAEKEETGMAMRIRVGQSMNMGSDFDVFAHITNNTAEEYVCRLLLCARTVSYNGILGPECGTKYLLNLNLEPFSEKSVPLCILYEKYRDCLTESNLIKVRALLVEPVINSYLLAERDLYLENPEIKIRILGEPKQKRKLVAEVSLQNPLPVALEGCTFTVEGAGLTEEQKTVEIPDPVEAGEEVKVRMDLLPLHMGLHKLVVNFESDKLKAVKGFRNVIIGPA",binding,[1],binds
same,binding,[2],binds
